{"source": "PubChem BioAssay AID1259425 (University of Nebraska Medical Center, 2018)", "purpose": "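Find knockdowns that reproduce the gene expression pattern seen when KSR1 is lost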 (primary screen)", "cell system": "HCT116 human colon cancer cells", "reagents": "siRNA pool against human genes, 50 nM siRNA", "measurement": "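mRNA of six signature genes measured together by branched-DNA assay after 50 nM siRNA pool, blank removed, divided by geometric mean of two housekeeping genes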", "direction": "BNIP3L mRNA: higher = more BNIP3L transcript after knockdown", "note": "This is an unselected part of about 14,000 reagents. Further read-outs or replicates are left out here. The record does not give: the time to read-out."}
{"Target gene": "ADCY8", "BNIP3L mRNA, set 1": 0.0537}
{"Target gene": "MYNN", "BNIP3L mRNA, set 1": 0.111}
{"Target gene": "GPLD1", "BNIP3L mRNA, set 1": 0.0881}
{"Target gene": "MYBBP1A", "BNIP3L mRNA, set 1": 0.119}
{"Target gene": "VPS54", "BNIP3L mRNA, set 1": 0.0859}
{"Target gene": "STRN3", "BNIP3L mRNA, set 1": 0.13}
{"Target gene": "GATB", "BNIP3L mRNA, set 1": 0.0852}
{"Target gene": "NOVA2", "BNIP3L mRNA, set 1": 0.173}
{"Target gene": "PDCD6IP", "BNIP3L mRNA, set 1": 0.036}
{"Target gene": "KIR3DL1", "BNIP3L mRNA, set 1": 0.0804}
{"Target gene": "RECQL5", "BNIP3L mRNA, set 1": 0.0742}
{"Target gene": "FKBP6", "BNIP3L mRNA, set 1": 0.0577}
{"Target gene": "MAP2K5", "BNIP3L mRNA, set 1": 0.0452}
{"Target gene": "EXOSC4", "BNIP3L mRNA, set 1": 0.117}
{"Target gene": "SYCP2", "BNIP3L mRNA, set 1": 0.155}
{"Target gene": "DERA", "BNIP3L mRNA, set 1": 0.162}

Ordered by “BNIP3L mRNA, set 1” (lowest first): 2 of the entries above.
{"Target gene": "GPLD1", "BNIP3L mRNA, set 1": 0.0881}
{"Target gene": "MYBBP1A", "BNIP3L mRNA, set 1": 0.119}

Continued.
{"Target gene": "MIB1", "BNIP3L mRNA, set 1": 0.0602}
{"Target gene": "CEACAM19", "BNIP3L mRNA, set 1": 0.325}
{"Target gene": "KCNE1", "BNIP3L mRNA, set 1": 0.0725}
{"Target gene": "TAPBPL", "BNIP3L mRNA, set 1": 0.0755}
{"Target gene": "NOL6", "BNIP3L mRNA, set 1": 0.0591}
{"Target gene": "TRPC7", "BNIP3L mRNA, set 1": 0.0822}
{"Target gene": "TMEM94", "BNIP3L mRNA, set 1": 0.121}
{"Target gene": "TWSG1", "BNIP3L mRNA, set 1": 0.189}
{"Target gene": "NUP205", "BNIP3L mRNA, set 1": 0.127}
{"Target gene": "CCR1", "BNIP3L mRNA, set 1": 0.172}
{"Target gene": "DLD", "BNIP3L mRNA, set 1": 0.0748}
{"Target gene": "CHDH", "BNIP3L mRNA, set 1": 0.111}
